# Assay results: the supplement of paper PMC10470496
# Counter-ions that a name gives are not always drawn. The list shows a part of the results. Repeats are few or missing, and single values can be far off.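 Three clinical Candida auris isolates (clades III, IV and I) from the CDC resistance isolate bank were grown in RPMI-1640 at 35°C. Growth was background-corrected OD600 relative to same-plate vehicle-only wells. Hits required over 50% inhibition in at least two strains and a plate-corrected B-score above 0.1.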
# Columns and labels:
# Assay in all cases: growth relative to vehicle control (OD600 ratio) (fraction); higher = less inhibition
# Conditions in all cases: 24 h
# [1] = test system: C. auris AR-384
# [2] = test system: C. auris AR-386
# [3] = test system: C. auris AR-387
Compound,growth ([1]; 1 µM),growth ([1]; 10 µM),growth ([2]; 1 µM),growth ([2]; 10 µM),growth ([3]; 1 µM),growth ([3]; 10 µM)
COc1cccc2c1C(=O)c1c(O)c3c(c(O)c1C2=O)C[C@@](O)(C(=O)CO)C[C@@H]3O[C@H]1C[C@H](N)[C@@H](O)[C@H](C)O1 [Epirubicin HCl],0.67,1.13,1.09,1.17,0.9,0.96
COc1cc2nc(N3CCN(C(=O)C4COc5ccccc5O4)CC3)nc(N)c2cc1OC (stereo unspecified) [Doxazosin Mesylate],1.15,0.91,0.72,0.56,0.85,0.5
CN1C2=CC(=O)/C(=N\NC(N)=O)C=C2CC1S(=O)(=O)O (stereo unspecified) [Carbazochrome sodium sulfonate (AC-17)],0.97,0.63,0.81,0.74,0.65,0.63
CCOC(=O)C1=C(COCCN)NC(C)=C(C(=O)OC)C1c1ccccc1Cl (stereo unspecified) [Amlodipine Besylate],1.23,1.03,0.98,1.19,1.1,1.14
Cc1cccc(C)c1OCC(C)N (stereo unspecified) [Mexiletine HCl],1.08,0.95,0.72,1.12,0.98,1.06
CN(C)CCOc1ccc(/C(=C(/CCCl)c2ccccc2)c2ccccc2)cc1 [Toremifene Citrate],0.83,1.04,1.06,0.73,0.69,0.87
CCC1(c2ccccc2)C(=O)NCNC1=O [Primidone],0.85,0.89,0.6,0.82,0.82,0.8
c1ccc2c(c1)CCCC2C1=NCCN1 (stereo unspecified) [Tetrahydrozoline HCl],1.02,0.85,0.96,0.76,0.83,1.03
CC(C)(OCc1nn(Cc2ccccc2)c2ccccc12)C(=O)O [Bindarit],0.95,0.86,0.95,1.1,1.13,0.97
CCN(CC)CCNC(=O)c1ccc(N)cc1 [Procainamide HCl],1.11,1.19,0.83,1.05,0.84,0.98
COCCOC(=O)C1=C(C)NC(C)=C(C(=O)OC/C=C/c2ccccc2)C1c1cccc([N+](=O)[O-])c1 (stereo unspecified) [Cilnidipine],1.02,1.1,1.06,0.76,1,0.75
CC(C)Cc1ccc(C(C)C(=O)O)cc1 (stereo unspecified) [Ibuprofen],0.66,0.57,0.67,0.83,0.91,0.73
CCOc1ccc(Cc2cc([C@@H]3O[C@H](CO)[C@@H](O)[C@H](O)[C@H]3O)ccc2Cl)cc1 [Dapagliflozin],0.96,1.43,1.31,1.27,1.36,1.28
CC1(C)O[C@@H]2C[C@H]3[C@@H]4CCC5=CC(=O)C=C[C@]5(C)[C@@]4(F)[C@@H](O)C[C@]3(C)[C@]2(C(=O)CO)O1 [Triamcinolone Acetonide],0.92,0.82,0.78,0.63,0.85,0.63
CC(C)(C)NCC(O)COc1cccc2c1CCC(=O)N2 (stereo unspecified) [Carteolol HCl],0.79,0.99,0.8,0.84,0.67,0.68
COc1cc2nccc(Oc3ccc(NC(=O)C4(C(=O)Nc5ccc(F)cc5)CC4)cc3)c2cc1OC,0.63,0.63,0.66,0.85,0.76,0.94
CO[C@H]1/C=C/O[C@@]2(C)Oc3c(C)c(O)c4c(c3C2=O)C2=NC3(CCN(CC(C)C)CC3)NC2=C(NC(=O)/C(C)=C\C=C\[C@H](C)[C@H](O)[C@@H](C)[C@@H](O)[C@@H](C)[C@H](OC(C)=O)[C@@H]1C)C4=O [Rifabutin],1.03,1.11,1.02,0.9,0.92,1.12
CC1(C)[C@H](C(=O)O)N2C(=O)C[C@H]2S1(=O)=O [Sulbactam sodium],0.84,1.02,1,0.92,1.12,1.08
COc1cc2nc(N3CCN(C(=O)C4CCCO4)CC3)nc(N)c2cc1OC (stereo unspecified) [Terazosin HCl Dihydrate],1.54,1.33,0.89,1.24,1.29,1.15
CC(=O)Oc1ccccc1C(=O)Nc1ncc([N+](=O)[O-])s1 [Nitazoxanide],1.04,0.81,0.9,0.8,1.15,0.78
CO/N=C(\C(=O)N[C@@H]1C(=O)N2C(C(=O)O)=C(CSC(=O)c3ccco3)CS[C@H]12)c1csc(N)n1 [Ceftiofur HCl],0.77,0.78,1.05,0.72,0.74,0.97
Nc1ccn([C@H]2CC[C@@H](CO)O2)c(=O)n1 [Zalcitabine],0.9,1.36,1.45,1.08,1.24,1.1
CCCC(C(=O)OCCN(CC)CC)(c1ccccc1)c1ccccc1 [Proadifen HCl],0.92,0.94,1.01,0.66,0.61,0.79

Compound,growth ([1]; 1 µM),growth ([1]; 10 µM),growth ([2]; 1 µM),growth ([2]; 10 µM),growth ([3]; 1 µM),growth ([3]; 10 µM)
CCOC(=O)[C@H](CCc1ccccc1)N[C@H]1CCc2ccccc2N(CC(=O)O)C1=O [Benazepril HCl],0.88,0.68,1.06,1.13,0.8,1.2
C[C@@H]1CCO[C@H]2Cn3cc(C(=O)NCc4ccc(F)cc4F)c(=O)c(O)c3C(=O)N12,0.96,1.16,0.79,1.31,0.84,0.96
O=C1C2CC3CC1CC(O)(C3)C2 [Idramantone],0.95,0.72,0.65,0.94,0.93,0.85
NC1=NCC2c3ccccc3Cc3ccccc3N12 (stereo unspecified) [Epinastine HCl],0.81,0.8,0.63,0.75,0.62,0.65
CC(C)/N=c1\cc2n(-c3ccc(Cl)cc3)c3ccccc3nc-2cc1Nc1ccc(Cl)cc1 [Clofazimine],1.01,0.78,1.15,0.88,0.82,0.61
CCOC(=O)[C@@H](N)Cc1ccc(-c2cc(O[C@H](c3ccc(Cl)cc3-n3ccc(C)n3)C(F)(F)F)nc(N)n2)cc1 [Telotristat Etiprate (LX 1606 Hippurate)],1.18,1.31,1.01,0.65,0.91,1.07
COc1cccc2c1C(=O)c1c(O)c3c(c(O)c1C2=O)CC(O)(C(=O)CO)CC3OC1CC(N)C(O)C(C)O1 (stereo unspecified) [Doxorubicin (Adriamycin) HCl],0.81,0.8,0.98,0.91,0.86,1.01
Nc1nccs1 [Aminothiazole],1.17,0.7,1,0.75,0.66,0.69
CN(N=O)C(=O)NC1C(O)OC(CO)C(O)C1O (stereo unspecified) [Streptozotocin (STZ)],0.9,1.44,1.22,0.84,0.9,1.03
Cc1nc2n(c(=O)c1CCN1CCC(c3noc4cc(F)ccc34)CC1)CCCC2O (stereo unspecified) [Paliperidone],1.2,1.06,1.12,0.94,0.78,0.84
CN1CCC[C@@H]1Cc1c[nH]c2ccc(CCS(=O)(=O)c3ccccc3)cc12 [Eletriptan HBr],0.97,0.74,0.59,0.96,0.68,0.73
CCOc1nc2cccc(C(=O)OCc3oc(=O)oc3C)c2n1Cc1ccc(-c2ccccc2-c2noc(=O)[nH]2)cc1 [Azilsartan Medoxomil],0.9,0.85,0.93,0.98,0.82,0.94
Clc1ccc(COC(Cn2ccnc2)c2ccc(Cl)cc2Cl)cc1 (stereo unspecified) [Econazole nitrate],0.49,0.33,0.86,0.63,0.14,0.17
"COc1cc2c(cc1Cc1cccc(Cl)c1F)c(=O)c(C(=O)O)cn2[C@H](CO)C(C)C [Elvitegravir (GS-9137, JTK-303)]",0.86,0.97,0.98,0.71,1.2,0.92
Cc1cc(N2CCN([C@@H]3CN[C@H](C(=O)N4CCSC4)C3)CC2)n(-c2ccccc2)n1 [Teneligliptin hydrobromide],1.21,0.97,1.04,0.99,0.93,1
CN(C)[C@@H]1C(O)=C(C(N)=O)C(=O)[C@@]2(O)C(O)=C3C(=O)c4c(O)cccc4[C@@](C)(O)[C@H]3[C@H](O)[C@@H]12 [Oxytetracycline Dihydrate],1.01,1.02,0.83,0.57,0.83,0.77
COCCOC(=O)C1=C(C)NC(C)=C(C(=O)OC(C)C)C1c1cccc([N+](=O)[O-])c1 (stereo unspecified) [Nimodipine],0.92,0.84,0.88,1.09,0.8,0.99
O=C(O)C[C@H](O)C[C@H](O)/C=C/c1c(C2CC2)nc2ccccc2c1-c1ccc(F)cc1 [Pitavastatin Calcium],0.87,0.7,0.9,0.65,0.85,0.84
O=C(NCCN1CCOCC1)c1ccc(Cl)cc1,0.95,0.76,1.01,1.02,0.62,0.82
COC(=O)C1=C(C)NC(C)=C(C(=O)OCCN2CCN(C(c3ccccc3)c3ccccc3)CC2)C1c1cccc([N+](=O)[O-])c1 (stereo unspecified) [Manidipine],0.92,1.48,0.99,1.3,1.1,0.95
C[C@]12CCC3=C4CCC(=O)C=C4CC[C@H]3[C@@H]1CC[C@@]2(O)CC#N [Dienogest],0.86,0.61,0.92,1.26,0.92,1.02
O=C(O)CSc1nnc(Br)n1-c1ccc(C2CC2)c2ccccc12 [Lesinurad],0.88,0.83,0.86,0.83,0.72,0.7
CN(Cc1ccc(C(C)(C)C)cc1)Cc1cccc2ccccc12 [Butenafine HCl],0.93,0.46,0.52,0.28,0.37,0.26

# Part of the list above, as tab-separated lines:
Compound	growth ([1]; 1 µM)	growth ([1]; 10 µM)	growth ([2]; 1 µM)	growth ([2]; 10 µM)	growth ([3]; 1 µM)	growth ([3]; 10 µM)
COCCOC(=O)C1=C(C)NC(C)=C(C(=O)OC(C)C)C1c1cccc([N+](=O)[O-])c1 (stereo unspecified) [Nimodipine]	0.92	0.84	0.88	1.09	0.8	0.99
O=C(O)C[C@H](O)C[C@H](O)/C=C/c1c(C2CC2)nc2ccccc2c1-c1ccc(F)cc1 [Pitavastatin Calcium]	0.87	0.7	0.9	0.65	0.85	0.84
